Laboratory results from the supplement of paper PMC8616043.
Where a name gives a salt, the structure may show the parent alone. The list shows a part of the results. This data set is noisy: repeats of one test often differ as much as different tests do.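 PR50, a 50-repeat proline–arginine dipeptide protein from C9ORF72 (ALS/FTD), was expressed by transfection in U-2 OS human cells stably carrying a GFP sensor with import and classical export signals. Per-well nuclear-minus-cytoplasm GFP, normalized between in-plate DMSO (low) and PR-only (high), was scored versus other test wells; compounds well below zero were hits reversing PR.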

What follows are compounds tested on U-2 OS NCT-C biosensor cells expressing PR50 (assay: Z-score of normalised NCT-C biosensor translocation index in PR50-expressing cells; higher = more nuclear biosensor (more disrupted nuclear export)). Conditions: 3 µM; 24 h.
`NC(C(=O)O)C(O)C(=O)O` (racemic) [DL-threo-beta- Hydroxyaspartic acid] was tested, and the Z-score was inactive: -0.213.
For `O=C(O)C1=CC(=C(c2ccc(O)c(C(=O)O)c2)c2ccc(O)c(C(=O)O)c2)C=CC1=O` [Aurintricarboxylic acid], the Z-score was inactive: -0.187.
In the case of `CC#C[C@]1(O)CC[C@H]2[C@@H]3CCC4=CC(=O)CCC4=C3[C@@H](c3ccc(N(C)C)cc3)C[C@@]21C` [Mifepristone], the Z-score is reported as inactive: 0.758.
`Nc1c(O)cc(O)cc1C=Cc1ccc(O)cc1` [Aminoresveratrol sulfate] was tested, and the Z-score was inactive: -1.89.
With `COc1ccc(Cl)cc1C(=O)NCCc1ccc(S(=O)(=O)NC(=O)NC2CCCCC2)cc1` [Glyburide] the Z-score was inactive: -0.458.
In the case of `COc1ccc(Cl)cc1C(=O)NCCc1ccc(S(=O)(=O)NC(=O)NC2CCCCC2)cc1` [Glybenclamide], the Z-score is reported as inactive: -0.294.
For `Nc1nc(=O)n([C@@H]2CS[C@H](CO)O2)cc1F` [Emtricitabine], the Z-score was inactive: 0.373.
In the case of `NC(N)=NCCCC(NC(=O)C(N)Cc1ccc(O)cc1)C(=O)O` (configuration not stated) [Kyotorphin acetate salt], the Z-score is reported as inactive: -0.0968.
In the case of `CCCOc1ccccc1-c1nc2[nH]nnc2c(=O)[nH]1` [Zaprinast], the Z-score is reported as inactive: 0.0952.
`CCCCCCNC(=O)n1cc(F)c(=O)[nH]c1=O` [Carmofur] was tested, and the Z-score was inactive: 0.0591.
With `O=C(O)/C=C\C(=O)Nc1ccc(Oc2cccc(Oc3ccc(NC(=O)/C=C\C(=O)O)cc3)c2)cc1` the Z-score was inactive: -0.596.
For `COC(=O)C1=CO[C@@H](O)[C@@H]2C(CO)=CC[C@H]12` [Genipin], the Z-score was inactive: -0.401.
With `COc1cc2c(NC3CCN(C(C)C)CC3)nc(N3CCC(F)(F)CC3)nc2cc1OCCCN1CCCC1` the Z-score was active: -2.3.
With `O=C(O)CCC(C(=O)O)N1C(=O)c2ccccc2C1=O` [L-Glutamic acid, N- phthaloyl-] the Z-score was inactive: 1.5.
With `Clc1ccc2nsnc2c1NC1=NCCN1` [Tizanidine·HCl] the Z-score was inactive: -0.254.
In the case of `Clc1ccc2nsnc2c1NC1=NCCN1` [Tizanidine hydrochloride], the Z-score is reported as inactive: -0.537.
With `CC(=O)Nc1nnc(S(N)(=O)=O)s1` [Acetazolamide] the Z-score was inactive: 0.292.
For `Nc1nc(OCc2cc(Br)cs2)c2[nH]cnc2n1` [Lomeguatrib], the Z-score was inactive: -0.149.
`Cc1cc2cc3c(C)cc(=O)oc3c(C)c2o1` [4,5',8-Trimethylpsoralen] was tested, and the Z-score was inactive: -0.8.
`N#C/C(=C1/SC[C@@H](c2ccc(Cl)cc2Cl)S1)n1ccnc1` [Luliconazole] was tested, and the Z-score was inactive: -0.37.
For `C[C@H]1CC[C@@]2(OC1)O[C@H]1C[C@H]3[C@@H]4CC[C@@H]5C[C@@H](O)CC[C@]5(C)[C@H]4CC[C@]3(C)[C@H]1[C@@H]2C` [Sarsasapogenin], the Z-score was inactive: 0.327.
For `Cc1ccc(C(=O)Nc2sc(Nc3ccccc3)nc2C(N)=O)cc1`, the Z-score was inactive: 0.441.
With `C=C1O[C@@](CO)(n2cnc3c(N)ncnc32)[C@H](O)[C@@H]1O` [Decoyinine] the Z-score was inactive: -0.715.
`O=C1/C(=C/c2ccc(O)c(O)c2)Oc2c1ccc(O[C@@H]1O[C@H](CO)[C@@H](O)[C@H](O)[C@H]1O)c2O` [Maritimein] was tested, and the Z-score was inactive: -0.126.
`O=C(/C=C/c1ccc(O)c(O)c1)O[C@H](Cc1ccc(O)c(O)c1)C(=O)O` [Rosmarinic acid] was tested, and the Z-score was inactive: -0.848.
For `CO/N=C(\C(=O)N[C@@H]1C(=O)N2C(C(=O)O)=C(COC(C)=O)CS[C@H]12)c1csc(N)n1` [Cefotaxime Acid], the Z-score was inactive: 0.801.
`CO/N=C(\C(=O)N[C@@H]1C(=O)N2C(C(=O)O)=C(COC(C)=O)CS[C@H]12)c1csc(N)n1` [Cefotaxime sodium salt] was tested, and the Z-score was inactive: -0.391.
`C=C[C@](C)(O)CC[C@@H]1[C@@]2(C)CCCC(C)(C)[C@@H]2CC[C@@]1(C)O` [Sclareol] was tested, and the Z-score was inactive: 0.486.
In the case of `C[C@]12CC[C@@H]3c4ccc(O)cc4C[C@@H](CCCCCCCCC[S+]([O-])CCCC(F)(F)C(F)(F)F)[C@H]3[C@@H]1CC[C@@H]2O` (some centres not stated) [Fulvestrant], the Z-score is reported as inactive: 0.695.
With `COc1cc(CNC(=O)CCCC/C=C/C(C)C)ccc1O` [Capsaicin] the Z-score was inactive: 0.201.
With `Cc1ccc(NC(=O)CCCCCC(=O)Nc2ccccc2N)cc1` the Z-score was inactive: -1.8.
With `CC(C)[N+]1(C)[C@@H]2CC[C@H]1C[C@@H](OC(=O)C(CO)c1ccccc1)C2` (some centres not stated) [Ipratropium bromide] the Z-score was inactive: -0.469.
In the case of `Cc1ccc(-c2cc(C(F)(F)F)nn2-c2ccc(S(N)(=O)=O)cc2)cc1` [Celecoxib], the Z-score is reported as inactive: 0.283.
In the case of `CN[C@H]1CC[C@@H](c2ccc(Cl)c(Cl)c2)c2ccccc21` [Sertraline hydrochloride], the Z-score is reported as inactive: 0.645.
`CN[C@H]1CC[C@@H](c2ccc(Cl)c(Cl)c2)c2ccccc21` [Sertraline·HCl] was tested, and the Z-score was inactive: -0.49.
With `COCCNC(=O)COc1ccc(OCCNC[C@H](O)COc2ccccc2)cc1` [ZD 7114  hydrochloride] the Z-score was inactive: -0.169.
`CC[C@H]1OC(=O)[C@H](C)[C@@H](O[C@H]2C[C@@](C)(OC)[C@@H](O)[C@H](C)O2)[C@H](C)[C@@H](O[C@@H]2O[C@H](C)C[C@H](N(C)C)[C@H]2O)[C@](C)(O)C[C@@H](C)CN(C)[C@H](C)[C@@H](O)[C@]1(C)O` [Azithromycin] was tested, and the Z-score was inactive: 0.67.
In the case of `c1ccc2c(c1)CC(N1CCN(c3cccc4c3OCCO4)CC1)C2`, the Z-score is reported as inactive: 0.504.
For `O=C(O)c1ccc(-c2ccc(C=C3SC(=S)N(Cc4ccccc4)C3=O)o2)cc1` [Leukadherin-1], the Z-score was inactive: -1.22.
`CCN(CC)CCNC(=O)c1ccc(N)cc1` [Procainamide hydrochloride] was tested, and the Z-score was inactive: -1.02.
With `CCN(CC)CCNC(=O)c1ccc(N)cc1` [Procainamide·HCl] the Z-score was active: -2.35.
In the case of `NC[C@H](O)c1ccc(O)c(O)c1` [Norepinephrine Bitartrate Monohydrate], the Z-score is reported as inactive: 2.87.
